From PubChem BioAssay AID2417 (National Center for Advancing Translational Sciences (NCATS), 2010)
Out of some 140,000 compounds screened, about 4,300 (3.1%) were called active. Inconclusive means that the source gave no clear call. Such entries were picked first, then a sample of the others.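 How the source made its calls: active means readout at or below -70, meaning at least 70% loss of cells showing the perinucleolar compartment, a nuclear body marking cancer cells; inconclusive means readout between -30 and a set limit; inactive means the rest.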

Assay: High Content Assay for Compounds that inhibit the Assembly of the Perinucleolar Compartment;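 further: plate controls were DMSO wells for no effect and camptothecin positive control wells for full effect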
Conditions: PC3M PTB-GFP, PNC prevalence imaging, 16 h; at 10 µM; active compounds read low
Procedure, shortened: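 Compounds are pinned in duplicate onto adhered PC3M cells stably expressing GFP-tagged PTB and incubated 16 h at 37 C. Cells are then fixed, nuclei stained with Hoechst, and PNC-positive cells counted.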

Compound | activity change (PNC), negative = inhibition
COC(=O)c1nnn(-c2nonc2N)c1CSc1ccccn1 | inconclusive: -55.7%
CC(NS(=O)(=O)c1cccc(Cl)c1)C(=O)Nc1ccc(-c2nc3ccccc3s2)cc1 (centres undefined) | inconclusive: -32.6%
CCc1ccccc1NC(=O)Cn1cccc1C1=NC(c2ccccc2)CO1 (centres undefined) | inconclusive: -50.1%
COC(=O)c1c(N)c(C#N)c(C)n1-c1ccccc1 | inconclusive: -35.8%
CC1CCCN(Cc2nc3c(c(=O)n(C)c(=O)n3C)n2Cc2c(F)cccc2Cl)C1 (centres undefined) | inactive: -11.5%
CC(C)COC(=O)Cn1cnc2ccc(Br)cc2c1=O | inconclusive: -63%
O=C(COCc1nc2ccccc2c(=O)[nH]1)NCC1CCCCC1 | active: -100%
CC(C)(C)c1cc(C(=O)N/N=C/c2ccccc2O)n(-c2ccccc2)n1 | inconclusive: -60.8%
COc1ccccc1C(c1nnnn1Cc1ccccc1)N1CCN(C2CCCC2)CC1 (centres undefined) | inconclusive: -41.5%
N/C(=N\OC(=O)COc1ccccc1)c1cccnc1 | inactive: -1.64%
Cc1ccc(C)c2[nH]c(=O)c(CN(CCN3CCCC3)C(=O)Nc3ccc(F)cc3)cc12 | inconclusive: -64.1%
COc1ccc(C(=O)N/N=C/c2ccc(OC)c(OS(=O)(=O)c3ccccc3)c2)cc1 | inactive: -11.1%
Cc1nc2sc(C(c3ccc(F)cc3)N3CCN(C(=O)c4ccco4)CC3)c(O)n2n1 (centres undefined) | inactive: -28.6%
Cc1nn(C)c(Oc2ccccc2)c1CCNS(=O)(=O)c1ccc(F)cc1 | inconclusive: -62.9%
O=C(c1ccco1)N1CCN(C(=O)c2cccs2)CC1 | inactive: 24.9%
Cc1cc(C(=O)CCC(=O)N2CCN(S(=O)(=O)c3cccs3)CC2)c(C)s1 | active: -99.5%
Cc1cccnc1NC1(C(F)(F)F)N=C(c2ccccc2)NC1=O (centres undefined) | inactive: 66%
COC(=O)C12CCC3(SCCS3)C(C(=O)OC)(CCC13SCCS3)C2 | inactive: 5.76%
COc1cc(C(=O)Nc2oc(-c3ccccc3)c(-c3ccccc3)c2C#N)cc(OC)c1OC | active: -87.4%
O=C(O)Cc1ccc(-c2ccccc2-c2ccccc2)cc1 | inconclusive: -36.7%
N#CC(C(=O)NCc1ccco1)c1nc2ccccc2nc1N1CCOCC1 (centres undefined) | inconclusive: -30.3%
CCCCn1c(=O)[nH]c(=O)c2c1nc(COC(=O)c1c(C)noc1C)n2CCC | inactive: -27.7%
Cc1cc(C)n(Cc2ccc(C(=O)NCc3ccco3)o2)n1 | inconclusive: -37.9%

Compound | activity change (PNC), negative = inhibition
O=c1oc2ccccc2c2c1C(c1ccc(Cl)cc1)Nc1ccc3ccccc3c1-2 (centres undefined) | inactive: -9.8%
CN(C(=O)c1ccco1)c1nc(CC(=O)Nc2ccccc2)cs1 | inconclusive: -53.9%
Cn1ncc(Cl)c1C(=O)NCc1ccc(Cl)cc1 | inconclusive: -46.6%
CC(C)C(CC(=O)NCc1ccco1)c1ccco1 (centres undefined) | inactive: 34.9%
Cc1nc(C)n(CC(O)COc2ccc3cc(Br)ccc3c2)n1 (centres undefined) | inactive: 7.77%
COc1ccc(CCNC(=O)C2CCCN2C(=O)Nc2cccc(C(C)=O)c2)cc1OC (centres undefined) | inconclusive: -55.5%
CCOC(=O)/C(C(N)=NCCCO)=C(/O)c1ccccc1 | inconclusive: -31.1%
Oc1c(C(c2ccccc2)N2CCN(Cc3ccccc3)CC2)sc2ncnn12 (centres undefined) | inconclusive: -56.3%
Cc1nn(-c2ccccc2)c(C)c1/C=N/NC(=O)c1ccccc1NS(=O)(=O)c1cccs1 | inconclusive: -39.6%
O=C(CNC(=O)c1cccs1)NCCN1CCN(c2ccccc2F)CC1 | inconclusive: -46.5%
CNC(=O)c1cc2cccc(OC)c2oc1=O | inconclusive: -37.5%
CC(=O)Nc1ccc2c(c1)CN(c1cc(C)ccc1C)CO2 | inconclusive: -35.9%
CCOC(=O)C1=C(O)/C(=C\c2cccs2)N=C1C | inactive: 5.46%
CCC1(C)Cc2nc3[nH]c(=S)n(-c4ccccc4)c(=O)c3cc2CO1 (centres undefined) | inactive: 0.167%
CC(=O)c1c(C)oc2ccc(N(C(=O)C3CCCCC3)S(=O)(=O)c3cc([N+](=O)[O-])ccc3C)cc12 | inconclusive: -38.5%
COc1ccccc1NC(=O)CSc1nnc(Cc2cc(=O)[nH]c(=O)[nH]2)n1-c1ccccc1 | inconclusive: -50.6%
COC(=O)c1c(NC(=O)CC2NCCNC2=O)sc2c1CCCC2 (centres undefined) | inconclusive: -48.5%
COc1ccc(C2C(C(=O)OC3CCCCC3)=C(C)Nc3nnnn32)c(OC)c1OC (centres undefined) | inactive: 14.6%
O=C(Cn1nnc(-c2ccccc2)n1)NCc1ccc2c(c1)OCO2 | inconclusive: -71.8%
N#CC1=C(N)C(C#N)(C#N)C2(CCC3(CC2)OCCO3)C2CC3(CC=C12)OCCO3 (centres undefined) | inconclusive: -65.3%
COc1ccc(OCC(=O)Nc2ccc3c(c2)nc(CN2CCCC2)n3C)cc1 | inconclusive: -64.1%
Nc1nonc1-c1nc2ccccc2[nH]1 | inconclusive: -55.7%
Cc1ccc(NC(=O)CN(C)C(=O)COc2ccc(C(=O)c3ccc(F)cc3)cc2)cc1 | inactive: -5.7%

Compound | activity change (PNC), negative = inhibition
COc1cccc(/C=N/n2c(C)nc3ccccc3c2=O)c1O | inconclusive: -46.7%
N=c1c2c(n(Cc3ccc(Br)cc3)c3c1CCC3)CCCC2 | active: -123%
CCCCC(=O)N/N=C/c1ccc(Sc2cccc3cccnc23)o1 | inconclusive: -38.8%
CN1C(=O)C2(C(C#N)=C(N)Oc3c2oc(CO)cc3=O)c2ccccc21 (centres undefined) | inactive: -17.8%
Cc1nc(NC(=O)c2ccc(Cl)cc2)nc2cc3c(cc12)OCO3 | inconclusive: -43.2%
N/C(=N\OC(=O)c1ccc(Cl)cc1Cl)c1ccc(Cl)cc1 | inactive: 19.8%
Oc1ccc2ccccc2c1CNc1cnc2ccccc2c1 | inactive: 7.33%
COc1ccc(-c2cnc(SCC(=O)Nc3nc(C(C)(C)C)cs3)n2Cc2ccco2)cc1 | inactive: 8.71%
COc1cc(C(c2sc3nc(C)nn3c2O)N2CC(C)OC(C)C2)cc(OC)c1OC (centres undefined) | inactive: -19%
CCOc1cc(C2CC(=O)Nc3cc(C)c(C)cc32)ccc1O (centres undefined) | active: -139%
Cc1ccc(CNC(=O)c2cnc(-c3ccccn3)nc2C(F)(F)F)cc1 | inconclusive: -64.3%
COc1ccccc1OCCCCCNCCO | inconclusive: -60.5%
CCCCNC(=O)Cc1c(O)c2ccccc2[nH]c1=O | active: -112%
O=C(N/N=C/c1ccccn1)c1cc(-c2cccc3ccccc23)n[nH]1 | inconclusive: -55.6%
Clc1ccc(C(c2nnnn2CCc2ccccc2)N2CCSCC2)cc1 (centres undefined) | inconclusive: -48.9%
Cc1ccccc1CSCC(=O)c1c(N)n(C)c(=O)n(C)c1=O | inconclusive: -42%
CCOC(=O)C1=C(c2ccccc2)NC(=S)NC1c1ccc(Cl)c([N+](=O)[O-])c1 (centres undefined) | inactive: -22.2%
O=C(CCCn1c(=O)c2ccccc2n(Cc2ccccc2)c1=O)NCc1ccco1 | inactive: -3.38%
O=c1c2ccccc2nc(-c2ccccc2)n1Cc1ccccc1 | inconclusive: -52.9%
COC(=O)c1ccc(NC(=O)CSc2nccn2CCc2ccccc2)cc1 | inactive: -17.1%
O=C(CSc1ncnc2nc[nH]c12)Nc1ccccc1C(F)(F)F | inconclusive: -33.5%
CC(NC(=O)c1cccs1)c1nnc(SCc2ccc(Cl)cc2Cl)n1C (centres undefined) | inactive: -20.1%
Cc1ccc(C(=O)NC(O)C(Cl)Cl)cc1 (centres undefined) | inactive: 71.4%

Fetched by structure from above (three):
Compound | activity change (PNC), negative = inhibition
O=C(CSc1ncnc2nc[nH]c12)Nc1ccccc1C(F)(F)F | inconclusive: -33.5%
CCOc1cc(C2CC(=O)Nc3cc(C)c(C)cc32)ccc1O (centres undefined) | active: -139%
CCCCNC(=O)Cc1c(O)c2ccccc2[nH]c1=O | active: -112%

Next part.

Compound | activity change (PNC), negative = inhibition
Cc1cc(C)n(/N=C/c2c[nH]c3ccccc23)c(=O)c1C#N | inconclusive: -45.4%
CC1CCC(C(=O)NC(C(=O)N2CCC(N3CCCCC3)CC2)C(C)C)CC1 (centres undefined) | inconclusive: -30.3%
CCOc1ccccc1Oc1c(C)oc2c(CN3CCN(CCO)CC3)c(O)ccc2c1=O | inconclusive: -33.1%
O=C(NC(=S)N1CCN(c2ccc(Cl)cc2[N+](=O)[O-])CC1)c1ccco1 | active: -81.4%
CC1(C)CC(=O)c2cn3nc(C(F)(F)F)nc3nc2C1 | inconclusive: -30%
COc1ccc(CCn2c(-c3ccco3)nc3ccccc3c2=O)cc1OC | inconclusive: -34.9%
COc1ccc(N2CCN(C(=O)CSc3ccccc3N)CC2)cc1 | inconclusive: -59.3%
Cc1cccnc1N(C(=O)Nc1ccccc1)C1=NCC(C)(C)S1 | active: -89.1%
CSc1ccccc1OC1CCN(Cc2ccccc2)CC1 | active: -109%
Cn1cc(/C=N\NC(=O)C2COc3ccccc3O2)c2ccccc21 (centres undefined) | inconclusive: -37.1%
O=C(CNC(=O)c1cccc(F)c1)OCc1cc(=O)n2cc(Br)ccc2n1 | inconclusive: -30.4%
Cn1c(Cn2c(=O)sc3ccccc32)nnc1SCC(=O)N1CCCc2ccccc21 | inconclusive: -49.2%
COc1ccc(CCNC(=O)CN2C(=O)c3ccccc3S2(=O)=O)cc1 | inactive: -5.15%
CCc1ccc(OCc2nnc(SCC(=O)N3CCN(c4ccccc4)CC3)o2)cc1 | inconclusive: -72.7%
O=C(NCc1ccc2c(c1)OCO2)C12CN(Cc3ccccc3)CC1C(c1cccc([N+](=O)[O-])c1)=NO2 (centres undefined) | active: -86.7%
COc1ccc(C(=O)Oc2c(C)occc2=O)cc1OC | inconclusive: -32.6%
CCCCOc1ccc(-c2c(C#N)c(N)nc(SCC(N)=O)c2C#N)cc1 | inactive: -25.3%
Cc1cccc(C)c1NC(=O)c1c(C)nn(-c2ccccc2)c1Cl | inconclusive: -32.7%
CC1CC(C)CN(CC(C)(C)NS(=O)(=O)c2ccccc2)C1 (centres undefined) | inconclusive: -59.4%
COc1ccc(NC(=O)c2ccc(CNS(=O)(=O)c3cccc(OC)c3)cc2)cc1 | inconclusive: -55.1%
